Binding data for one molecule are collected here from article PMC10641233, “The C-terminal domain of the antiamyloid chaperone DNAJB6 binds to amyloid-β peptide fibrils and inhibits secondary nucleation” (The Journal of Biological Chemistry, 2023).

No constants are given. Whether binding was seen depends on the method and setting. Some results given as binding are weak or reduced against the parent protein; the word gives no strength.

For the test, the target named is C-terminal domain (CTD) of DNAJB6 (human). Briefly: native MS; non-mixed samples of CTD or CTD STA, 200 mM ammonium acetate pH 6.8, 10-25 µM, nano-electrospray, source temperature 25 °C; both purified.

B1: C-terminal domain (CTD) of DNAJB6 (domain or fragment)
chain: MNFKSISTSTKMVNGRKITTKRIVENGQERVEVEEDGQLKSLTINGKEQLLRLDNK
As to B1, the binding result is “binds weakly”.
